Data reported in patent US20160002322A1.
No constants are given. Whether binding was seen depends on the method and setting. Some entries that bind do so weakly or less than the wild type.

The chains behind the UniProt entries cited, without tags or fusion partners.
UniProt O14894: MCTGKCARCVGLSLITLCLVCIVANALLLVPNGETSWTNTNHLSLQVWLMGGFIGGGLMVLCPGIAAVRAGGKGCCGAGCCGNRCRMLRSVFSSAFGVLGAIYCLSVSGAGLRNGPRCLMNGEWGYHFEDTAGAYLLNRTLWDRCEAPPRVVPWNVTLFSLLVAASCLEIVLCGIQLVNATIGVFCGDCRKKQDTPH

Columns and labels:
[1] = target: mouse TM4SF5 (mouse) (UniProt Q91XF2); assay: immunohistochemistry of CT-26 allograft tumour tissue
[2] = target: human TM4SF5 (transmembrane 4 superfamily member 5 protein) (human) (UniProt O14894); assay: immunohistochemistry of human HCC tissue arrays
[3] = target: mouse TM4SF5 (mouse) (UniProt Q91XF2); assay: immunohistochemistry of BNL-HCC allograft tumour tissue
[4] = target: mouse TM4SF5 (mouse) (UniProt Q91XF2); assay: confocal microscopy of frozen HCC tumour sections after i.p. injection of labelled antibody; in vivo imaging
[5] = target: mouse TM4SF5 (mouse) (UniProt Q91XF2); assay: confocal microscopy of frozen BNL-HCC tumour sections taken 72 hr after i.p. injection of DyLight 750-labelled antibody into tumour-bearing BALB/c mice
[6] = target: human TM4SF5 (transmembrane 4 superfamily member 5 protein) (human) (UniProt O14894); assay: immunohistochemistry of HT-29 xenograft tumour tissue
[7] = target: human TM4SF5 (transmembrane 4 superfamily member 5 protein) (human) (UniProt O14894); assay: immunohistochemistry of Huh-7 xenograft tumour tissue
[8] = target: mouse TM4SF5 (mouse) (UniProt Q91XF2); assay: in vivo biodistribution imaging in tumour-bearing BALB/c mice
[9] = target: human TM4SF5 (transmembrane 4 superfamily member 5 protein) (human) (UniProt O14894); assay: immunohistochemistry of human colon cancer tissue arrays

- binding [1]: binds
- binding [2]: binds
- binding [3]: binds
- binding [4]: binds
- binding [5]: binds
- binding [6]: binds
- binding [7]: binds
- binding [8]: binds
- binding [9]: binds
B1: anti-TM4SF5 monoclonal antibody 2D4-18 (antibody, V domains shown)
VH: GDLVKPGGSLKLSCAASGFTFSSYGMSWVRQTPDKRLEWVATISSGGGYTYYPDSVKGRFTISRDNAKNTLYLQMRSLKSEDTAMYYCARHEGFTTYYFDYWGQGTTLTVSS
VL: LSLPVSLGDQASISCRSSQSILHSSGNTYLEWYLQKPGQSPKLLIYKVSNRFSGVPDRFSGSGSGTDFTLKISRVEAEDLGVYYCFQGSHVPFTFGSGTKLEIKR
